Laboratory results taken from US20050260210A1 (FACET BIOTECH, published 2005).
These are yes or no findings as the source states them, for the method shown. Binding can be weak; no strength is given.

Biological target: rabbit α5β1 integrin (rabbit)
Experiment: IHC of rabbit VX2 tumor sections, IIA1 followed by an anti-mouse secondary to detect total α5β1

B1: IIA1, anti-α5β1 mouse antibody (antibody, mouse IgG1, V domains shown)
VH: QVQLKESGPGLVAPSQSLSITCTISGFSLTDYGVHWVRQPPGKGLEWLVVIWSDGSSTYNSALKSRMTIRKDNSKSQVFLIMNSLQTDDSAMYYCARHGTYYGMTTTGDALDYWGQGTSVTVSS
VL: QIVLTQSPAIMSASLGERVTMTCTASSSVSSNYLHWYQQKPGSAPNLWIYSTSNLASGVPARFSGSGSGTSYSLTISSMEAEDAATYYCHQYLRSPPTFGGGTKLEIK
notes: also called mouse anti-α5β1 antibody
- binding: binds
